Test results: patent US6569434
No constants are given. Whether binding was seen depends on the method and setting. Some binding calls cover weakened binding; strength is not graded here.

Sequences of proteins named here, by UniProt entry; tags and fusion partners are left off. A change or cut given only in a name is not applied to a line headed by its entry. A line that says so, or that is headed by a name, gives the form on record, which may keep a tag or linker.
human recombinant VEGF A subunit (FIG. 12, 191 amino acid form) (P15692, form named): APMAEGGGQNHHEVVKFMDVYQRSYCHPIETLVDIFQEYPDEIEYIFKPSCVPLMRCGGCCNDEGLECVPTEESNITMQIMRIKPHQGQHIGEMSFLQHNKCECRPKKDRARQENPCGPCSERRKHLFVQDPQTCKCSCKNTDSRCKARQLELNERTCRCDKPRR

Biological target: human recombinant VEGF A subunit (FIG. 12, 191 amino acid form) (human) (UniProt P15692)
Assay: SDS-PAGE with silver stain of purified recombinant VEGF AC from Sf9 cells; under reducing conditions splits into 25/23 kDa (VEGF A) and 20 kDa (VEGF C) bands, assigned against pure subunits and by Western analysis

- binding: binds
B1: human recombinant VEGF C subunit, 170 amino acid form (FIG. 10) (ligand)
chain: LPAVPPQQWALSAGNGSSEVEVVPFQEVWGRSYCRALERLVDVVSEYPSEVEHMFSPSCVSLLRCTGCCGDENLHCVPVETANVTMQLLKIRSGDRPSYVELTFSQHVRCECRPLREKMKPERRRPKGRGKRRREKQRPTDCHLCGDAVPRR
